Literature values, collected in PMC5405622 (Drug Metabolism Letters, 2016).

Tested on: cryo-preserved rat hepatocytes
Conditions: cited from earlier work

CC(C)c1c(C(=O)Nc2ccccc2)c(-c2ccccc2)c(-c2ccc(F)cc2)n1CC[C@@H](O)C[C@@H](O)CC(=O)O [atorvastatin, reference compound]
Uptake rate (CLint, influx): 12.6 mL/min/g of liver
